The source of these data is PubChem BioAssay AID2685 (National Center for Advancing Translational Sciences (NCATS), 2010).

Molecules are shown by their SMILES. This is one part of the list.

The test can be described thus: qHTS Assay for Lipid Storage Modulators in Drosophila S3 Cells. To be noted: BODIPY lipid droplet fluorescence, 18-24 h, measured here: cell count max response, cells fed with added oleic acid. In general terms: Quantitative high-throughput screening tests each substance at several concentrations.
On to `O=C(OC1CN2CCC1CC2)c1ccc([N+](=O)[O-])cc1` (stereo not given), for which the cell number change was -12.1%.
The value for `CCCOc1ccc(C(=O)NCC2(N(C)C)CCCCC2)cc1OC` was 9.58%.
`O=C(NCC1(N2CCCCC2)CCCCC1)c1cccc([N+](=O)[O-])c1`: the cell number change is -17.5%.
With `CSc1ccc(C(=O)NCC2(N3CCOCC3)CCCCC2)cc1`, the cell number change was -7.05%.
Consider `CCOC(=O)N1CCC(Nc2cccc(C)c2)CC1`, for which the cell number change was determined as 2.49%.
Consider `CCOc1ccc(C)cc1CN(CCCl)CCCl`, for which the cell number change was -0.499%.
Regarding `Cc1cc(C)cc(N(C(=O)c2ccccc2)C2CCN(C(=O)OC(C)(C)C)CC2)c1`, the cell number change is -15%.
Regarding `N#CC1(Nc2ccccc2)CCN(Cc2ccccc2)CC1`, the cell number change is -0.435%.
Regarding `COc1ccc(C(=O)NCC2(N3CCCCC3)CCCCC2)c(OC)c1OC`, the cell number change stood at 15%.
Consider `CC(C)(C)OC(=O)N1CCC(N(C(=O)c2ccccc2)c2ccc(F)cc2)CC1`, for which the cell number change was -8.33%.
As for `O=C(NCC1(N2CCCCC2)CCCCC1)c1ccc(=O)[nH]c1`, the cell number change was 19.7%.
Take `COc1cccc(C(=O)N(c2cc(C)cc(C)c2)C2CCN(C(=O)OC(C)(C)C)CC2)c1`: the cell number change is -23.5%.
As for `CN1CCC(Nc2ccc(Cl)cc2)CC1`, the figure is 16.3%; as for `CCCOc1ccc(C)cc1CN(CCCl)CCCl`, -3.83%.
Turning to `CN1CCC(Nc2ccc(F)c(Cl)c2)CC1`, the cell number change is -13.8%.
For `O=C(O)C1(Nc2ccccc2)CCN(Cc2ccccc2)CC1`, the cell number change is -0.508%.
For the molecule `CC(C)(C)OC(=O)N1CCC(Nc2ccccc2)CC1`, the cell number change is -4.44%.
Consider `O=C(NCC1(N2CCCCC2)CCCCC1)c1ccco1`, for which the cell number change is -1.24%.
Take `Cc1ccc(C(=O)NCC2(N3CCCCC3)CCCCC2)o1`: the cell number change was -7.59%.
For the molecule `CN(C)C1(CNC(=O)c2cccc(C#N)c2)CCCCC1`, the cell number change came out at 6.34%.
The value for `CC(C)(C)OC(=O)N1CCC(N(C(=O)c2ccccc2)c2ccc(Cl)cc2)CC1` was -18.8%; that for `CCOC(=O)C(CC)C1=NC(C)(C)Cc2ccccc21.O=[N+]([O-])c1cc([N+](=O)[O-])c(O)c([N+](=O)[O-])c1` (stereo not given) was 10.1%.
Consider `CCOC(=O)N1CCC(Nc2ccc(C)cc2)CC1`, for which the cell number change is -0.529%.
For the molecule `N/C(=N\O)c1c(N)no[n+]1[O-]`, the cell number change was -1.95%.
Turning to `O=C(NCC1(N2CCOCC2)CCCCC1)c1cc(Br)ccc1Cl`, the cell number change was -4.8%.
